Experimental findings from PMC8359101 are described below.

By UniProt entry, the sequences of proteins in these tests, tags left out. Where a name states a change or a piece, a line headed by the entry shows the natural chain unless it says otherwise.
UniProt P09874: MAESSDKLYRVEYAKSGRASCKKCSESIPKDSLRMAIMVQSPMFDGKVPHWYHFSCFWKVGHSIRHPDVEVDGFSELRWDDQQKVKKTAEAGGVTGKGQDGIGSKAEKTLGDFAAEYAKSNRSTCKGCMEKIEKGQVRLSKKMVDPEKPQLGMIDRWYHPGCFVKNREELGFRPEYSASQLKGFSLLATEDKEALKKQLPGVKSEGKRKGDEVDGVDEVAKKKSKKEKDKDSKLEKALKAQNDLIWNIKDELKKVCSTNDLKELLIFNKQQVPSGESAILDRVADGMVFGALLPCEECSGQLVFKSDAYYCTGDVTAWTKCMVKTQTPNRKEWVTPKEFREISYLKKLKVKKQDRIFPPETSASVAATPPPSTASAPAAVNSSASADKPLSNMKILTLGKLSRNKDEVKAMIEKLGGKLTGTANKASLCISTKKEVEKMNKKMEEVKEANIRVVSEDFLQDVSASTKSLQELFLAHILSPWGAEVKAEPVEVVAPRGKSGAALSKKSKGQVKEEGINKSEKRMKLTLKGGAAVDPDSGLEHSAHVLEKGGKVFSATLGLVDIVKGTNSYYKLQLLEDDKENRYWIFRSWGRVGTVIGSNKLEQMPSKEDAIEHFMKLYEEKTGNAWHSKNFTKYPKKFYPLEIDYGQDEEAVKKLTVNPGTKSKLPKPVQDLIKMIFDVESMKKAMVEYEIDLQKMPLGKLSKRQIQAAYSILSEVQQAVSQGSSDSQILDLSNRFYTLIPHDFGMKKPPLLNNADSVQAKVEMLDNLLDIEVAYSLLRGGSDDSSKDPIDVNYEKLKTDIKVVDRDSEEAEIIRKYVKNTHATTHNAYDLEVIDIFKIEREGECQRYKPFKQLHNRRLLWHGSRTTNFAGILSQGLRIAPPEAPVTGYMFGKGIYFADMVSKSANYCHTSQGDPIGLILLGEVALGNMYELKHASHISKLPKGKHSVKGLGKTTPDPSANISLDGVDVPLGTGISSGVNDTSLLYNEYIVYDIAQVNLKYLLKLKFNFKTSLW

These are yes or no findings as the source states them, for the method shown. Binding seen in cells or lysates may run through a third protein. Some entries that bind do so weakly or less than the wild type. Tags and fused reporters may be left off the sequences shown.

Assay [1] concerns the target T1, DIDO1-529aa with Flag tag (DIDO1-529aa-Flag), the 529 aa protein encoded by circDIDO1 (human) (UniProt Q9BTC0).
T1 sequence: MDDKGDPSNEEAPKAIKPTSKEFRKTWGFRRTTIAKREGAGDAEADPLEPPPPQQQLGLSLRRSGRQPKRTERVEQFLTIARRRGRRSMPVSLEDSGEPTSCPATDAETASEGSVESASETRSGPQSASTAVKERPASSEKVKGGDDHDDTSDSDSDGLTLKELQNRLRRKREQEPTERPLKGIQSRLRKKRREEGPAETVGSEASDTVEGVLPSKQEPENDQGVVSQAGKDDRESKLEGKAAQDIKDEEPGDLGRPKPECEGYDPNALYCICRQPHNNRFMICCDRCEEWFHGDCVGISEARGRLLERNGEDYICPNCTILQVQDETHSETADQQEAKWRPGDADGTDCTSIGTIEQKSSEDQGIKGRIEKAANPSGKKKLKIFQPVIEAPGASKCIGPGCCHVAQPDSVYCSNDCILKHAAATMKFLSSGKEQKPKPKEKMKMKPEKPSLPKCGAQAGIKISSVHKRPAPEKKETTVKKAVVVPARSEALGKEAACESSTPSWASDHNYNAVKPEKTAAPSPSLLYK
As to the kind of experiment: co-IP; DIDO1-529aa-Flag vector co-transfected with HA-tagged PARP1 deletions into 293 T cells, Co-IP (Fig. 4c).

Assay [2] deals with T1, DIDO1-529aa with Flag tag (DIDO1-529aa-Flag), the 529 aa protein encoded by circDIDO1 (human). The experiment in a line: co-IP; Co-IP and Western blot of DIDO1-529aa and PARP1 (Fig. 4a); antibody cross-linked to magnetic beads with DSS, lysate at 4 °C overnight; cells not given. On the technique in general: In western blotting, separated proteins are transferred to a membrane and probed.

Take “HA-tagged PARP1 deletion 525-1014 aa (from UniProt P09874 525-1014) (domain or fragment)”: the binding result in assay [1] is given as “binds”. Take “poly (ADP-ribose) polymerases-1 (PARP1) (from UniProt P09874 1-1014) (enzyme)”: the binding entry in assay [2] is “binds”. For “HA-tagged PARP1 deletion 1-372 aa (from UniProt P09874 1-372) (domain or fragment)”, the binding entry in assay [1] is given as “binds”.
